Source: PubChem BioAssay AID2685 (National Center for Advancing Translational Sciences (NCATS), 2010)
The campaign covered roughly 320,000 compounds. About 2,100 (0.66%) were called active. The call rests on the fitted dose curve; in most records, active means well fitted inhibition curve with a large enough effect in the signal ratio, with a control signal flat (not every such curve was filed as active); inconclusive means small, poorly fitted or top-dose-only effect, or effect the other way, or a change in a side signal; inactive means flat fitted curve, though single readings scatter; the % refers to the signal ratio. Inconclusive results, whose numbers are uncertain, are shown. Potencies beside an inconclusive call are fits to weak or partial responses and may not hold up.
Potency means the concentration at half of the fitted maximal effect.

Assay: qHTS Assay for Lipid Storage Modulators in Drosophila S3 Cells
Details: BODIPY lipid droplet fluorescence, 18-24 h, cells fed with added oleic acid; series mostly up to 46.1 µM
Outline: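 Drosophila S3 cells got compounds at several concentrations plus oleic acid (400 uM solution). Laser-scanning cytometry with 488 nm excitation read lipid droplets at 500-530 nm and cells at 575-640 nm. Percent activity was relative to 20 uM Triacsin C.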
For `CS(=O)(=O)C1=NSC2=NC(=O)/C(=C\c3ccc(OC(=O)c4ccco4)c(Br)c3)C(=N)N21`, the Potency was inconclusive: 6.51 µM [falling, single point].
